We go through 5 molecules from paper PMC3979655.

By UniProt entry, the sequences of proteins in these tests, tags left out.
UniProt P29382: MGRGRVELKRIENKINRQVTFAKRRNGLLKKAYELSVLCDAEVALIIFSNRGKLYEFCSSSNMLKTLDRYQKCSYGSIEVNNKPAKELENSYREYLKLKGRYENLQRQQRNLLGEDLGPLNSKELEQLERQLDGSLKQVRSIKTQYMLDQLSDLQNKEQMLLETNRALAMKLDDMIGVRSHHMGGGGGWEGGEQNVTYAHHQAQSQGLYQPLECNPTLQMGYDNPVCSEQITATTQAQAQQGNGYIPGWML
UniProt O64645: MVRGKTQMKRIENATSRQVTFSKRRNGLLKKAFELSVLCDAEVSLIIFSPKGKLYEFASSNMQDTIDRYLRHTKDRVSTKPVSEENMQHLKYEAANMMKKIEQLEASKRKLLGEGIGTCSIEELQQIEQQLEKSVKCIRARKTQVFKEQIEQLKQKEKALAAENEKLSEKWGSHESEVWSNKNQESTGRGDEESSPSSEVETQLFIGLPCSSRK
UniProt P29384: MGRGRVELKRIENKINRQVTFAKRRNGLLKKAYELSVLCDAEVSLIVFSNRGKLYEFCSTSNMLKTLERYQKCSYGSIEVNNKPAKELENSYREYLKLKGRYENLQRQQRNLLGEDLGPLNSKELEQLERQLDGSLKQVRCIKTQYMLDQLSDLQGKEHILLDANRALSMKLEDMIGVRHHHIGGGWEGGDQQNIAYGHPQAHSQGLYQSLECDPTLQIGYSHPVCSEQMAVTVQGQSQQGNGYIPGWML
UniProt P35631: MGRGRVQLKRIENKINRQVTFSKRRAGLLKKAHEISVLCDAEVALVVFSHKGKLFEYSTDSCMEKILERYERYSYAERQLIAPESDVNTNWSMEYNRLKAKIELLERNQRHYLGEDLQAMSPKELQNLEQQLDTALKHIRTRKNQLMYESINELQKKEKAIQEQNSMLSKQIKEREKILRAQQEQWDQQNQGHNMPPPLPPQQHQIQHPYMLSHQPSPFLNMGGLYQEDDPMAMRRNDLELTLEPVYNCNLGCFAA

The target of this assay is T1, GFP–SAP54 (35S:GFP–SAP54, amino acids 34 to 124) in transgenic Arabidopsis (Aster Yellows phytoplasma strain Witches' Broom (AY-WB)) (UniProt Q2NJQ2).
T1 sequence: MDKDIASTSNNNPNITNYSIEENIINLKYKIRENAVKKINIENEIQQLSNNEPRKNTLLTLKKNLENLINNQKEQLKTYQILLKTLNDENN
Nature of the assay: affinity purification with mass spectrometry; GFP-binding resin on inflorescence extracts of transgenic Arabidopsis expressing 35S:GFP–SAP54 or 35S:GFP; gel slices, LC-MS/MS.

These are yes or no findings as the source states them, for the method shown. In cells and extracts the contact can be indirect. These calls come from enrichment with a bait or labelling near it, and not all partners need be listed. Tags and fused reporters may be left off the sequences shown.

On to “SEP1, endogenous in Arabidopsis inflorescences (from UniProt P29382 1-251)”, for which the binding entry is reported as “binds”. As for “SUPPRESSOR OF OVEREXPRESSION OF CONSTANS1 (SOC1), endogenous in Arabidopsis inflorescences (from UniProt O64645 1-214)”, the binding entry is recorded as “binds”. As to “SEP2, endogenous in Arabidopsis inflorescences (from UniProt P29384 1-250)”, the binding entry is reported as “binds”. “AP1, endogenous in Arabidopsis inflorescences (from UniProt P35631 1-256)”: the binding entry is listed as “binds”.

B1: MAF1, endogenous in Arabidopsis inflorescences (protein, UniProt Q9AT76 1-196)
chain: MGRRKIEIKRIENKSSRQVTFSKRRNGLIDKARQLSILCESSVAVVVVSASGKLYDSSSGDDISKIIDRYEIQHADELRALDLEEKIQNYLPHKELLETVQSKLEEPNVDNVSVDSLISLEEQLETALSVSRARKAELMMEYIESLKEKEKLLREENQVLASQMGKNTLLATDDERGMFPGSSSGNKIPETLPLLN
As for B1, the binding result was “binds”.
